Data reported in publication PMC5283832.
Results are given in words; binding and its absence hold for the method and conditions named. In cells and extracts the contact can be indirect. Each block holds one molecule with its values, some of them ahead of it.

Amino acid sequences for entries named in this document (tags omitted). Residues count along the entry.
UniProt P63165, residues 1-95: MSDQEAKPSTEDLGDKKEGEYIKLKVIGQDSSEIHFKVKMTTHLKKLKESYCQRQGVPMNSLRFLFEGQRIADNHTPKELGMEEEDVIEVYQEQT
UniProt P63279: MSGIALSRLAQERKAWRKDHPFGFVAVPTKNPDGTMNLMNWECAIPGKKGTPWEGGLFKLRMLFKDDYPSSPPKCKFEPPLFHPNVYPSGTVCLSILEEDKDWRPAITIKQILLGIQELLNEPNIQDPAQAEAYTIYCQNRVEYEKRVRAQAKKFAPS

What was measured:
CFP-NaV1.2 (rat) = CFP-NaV1.2 (rat) (UniProt P04775); assay: FRET or BRET; donor (CFP) photobleaching time constant τ in the presence of YFP acceptor; live CHO cells co-expressing the β1 subunit; epi-fluorescence microscope; 130 mM NaCl, 4 mM KCl, 1.2 mM MgCl2, 2 mM CaCl2, 10 mM HEPES pH 7.4; 3 regions of 5–7 cells per group
[1] = biological target: CFP-NaV1.2-Lys38Gln (rat) (UniProt P04775); assay: as above
[2] = biological target: native NaV1.2 (rat (endogenous in cerebellar granule neurons)) (UniProt P04775); assay: FRET or BRET; antibody-mediated FRET (amFRET) by acceptor photobleaching; native proteins in rat cerebellar granule neurons, permeabilised with digitonin and fixed; Alexa 488 (donor, NaV1.2) and Alexa 594 (acceptor) secondary antibodies; neurons in ambient O2 or 1% O2 for 5 min

- binding (CFP-NaV1.2 (rat)): no binding
- binding [1]: no binding
Molecule: YFP-SUMO1_(95) (from UniProt P63165 1-95) (domain or fragment)

- binding [1]: no binding
Molecule: YFP-Ubc9 (from UniProt P63279 1-158) (enzyme)

- binding [2]: no binding
B1: GAD67 (protein, UniProt P18088 1-593)
chain: MASSTPSPATSSNAGADPNTTNLRPTTYDTWCGVAHGCTRKLGLKICGFLQRTNSLEEKSRLVSAFRERQASKNLLSCENSDPGARFRRTETDFSNLFAQDLLPAKNGEEQTVQFLLEVVDILLNYVRKTFDRSTKVLDFHHPHQLLEGMEGFNLELSDHPESLEQILVDCRDTLKYGVRTGHPRFFNQLSTGLDIIGLAGEWLTSTANTNMFTYEIAPVFVLMEQITLKKMREIIGWSNKDGDGIFSPGGAISNMYSIMAARYKYFPEVKTKGMAAVPKLVLFTSEHSHYSIKKAGAALGFGTDNVILIKCNERGKIIPADLEAKILDAKQKGFVPLYVNATAGTTVYGAFDPIQEIADICEKYNLWLHVDAAWGGGLLMSRKHRHKLSGIERANSVTWNPHKMMGVLLQCSAILVKEKGILQGCNQMCAGYLFQPDKQYDVSYDTGDKAIQCGRHVDIFKFWLMWKAKGTVGFENQINKCLELAEYLYAKIKNREEFEMVFNGEPEHTNVCFWYIPQSLRGVPDSPERREKLHRVAPKIKALMMESGTTMVGYQPQGDKANFFRMVISNPAATQSDIDFLIEEIERLGQDL
